Measurements reported in patent US20240287028A1, “HERBICIDAL PHENYLURACILS” (BASF SE, priority 2021, published 2024).
Some of these results come from one statement about several compounds together.

Key:
Format in all cases: in vivo
Amaranthus retroflexus [1] = experiment: greenhouse herbicidal test, post-emergence treatment; settings: post-emergent; application rate 16 g/ha; scale 0 to 100
Chenopodium album [2] = experiment: as above; settings: post-emergent; application rate 16 g/ha; scale 0 to 100
Polygonum convolvulus [3] = experiment: as above; settings: post-emergent; application rate 16 g/ha; scale 0 to 100
Setaria viridis [4] = experiment: as above; settings: post-emergent; application rate 16 g/ha; scale 0 to 100
Amaranthus retroflexus [5] = experiment: greenhouse herbicidal test, pre-emergence treatment; settings: pre-emergent; application rate 16 g/ha; scale 0 to 100
Setaria viridis [6] = experiment: as above; settings: pre-emergent; application rate 16 g/ha; scale 0 to 100
Polygonum convolvulus [7] = experiment: as above; settings: pre-emergent; application rate 16 g/ha; scale 0 to 100
Chenopodium album [8] = experiment: as above; settings: pre-emergent; application rate 16 g/ha; scale 0 to 100

Structure (SMILES) | herbicidal activity against AMARE (Amaranthus retroflexus [1]) | herbicidal activity against CHEAL (Chenopodium album [2]) | herbicidal activity against POLCO (Polygonum convolvulus [3]) | herbicidal activity against SETVI (Setaria viridis [4]) | herbicidal activity against AMARE (Amaranthus retroflexus [5]) | herbicidal activity against SETVI (Setaria viridis [6]) | herbicidal activity against POLCO (Polygonum convolvulus [7]) | herbicidal activity against CHEAL (Chenopodium album [8])
Cn1c(C(C)(F)F)cc(=O)n(-c2cc(Oc3ccccc3OCC(=O)O)c(Cl)cc2F)c1=O [Example 1.3] | very good herbicidal activity (a very good herbicidal activity is given at values of at least 85) | very good herbicidal activity (a very good herbicidal activity is given at values of at least 85) | very good herbicidal activity (a very good herbicidal activity is given at values of at least 85) | very good herbicidal activity (a very good herbicidal activity is given at values of at least 85) | – | – | – | –
CCOC(=O)COc1ncccc1Oc1cc(-n2c(=O)cc(C(C)(F)F)n(C)c2=O)c(F)cc1Br [Example 2.4] | – | – | – | – | very good herbicidal activity (a very good herbicidal activity is given at values of at least 85) | very good herbicidal activity (a very good herbicidal activity is given at values of at least 85) | – | –
Cn1c(C(C)(F)F)cc(=O)n(-c2cc(Oc3cccnc3OCC(=O)OCC#N)c(Cl)cc2F)c1=O [Example 1.8] | – | – | – | – | very good herbicidal activity (a very good herbicidal activity is given at values of at least 85) | very good herbicidal activity (a very good herbicidal activity is given at values of at least 85) | – | –
Cn1c(C(C)(F)F)cc(=O)n(-c2cc(Oc3cccnc3OCC(=O)OCC3CCCO3)c(Cl)cc2F)c1=O (stereo not drawn) [Example 1.7] | – | – | – | – | very good herbicidal activity (a very good herbicidal activity is given at values of at least 85) | very good herbicidal activity (a very good herbicidal activity is given at values of at least 85) | very good herbicidal activity (a very good herbicidal activity is given at values of at least 85) | –
Cn1c(C(C)(F)F)cc(=O)n(-c2cc(Oc3cccnc3OCC(=O)OCC3CCCO3)c(Br)cc2F)c1=O (stereo not drawn) [Example 2.6] | – | – | – | – | very good herbicidal activity (a very good herbicidal activity is given at values of at least 85) | very good herbicidal activity (a very good herbicidal activity is given at values of at least 85) | very good herbicidal activity (a very good herbicidal activity is given at values of at least 85) | –
Cn1c(C(C)(F)F)cc(=O)n(-c2cc(Oc3cccnc3OCC(=O)O)c(Br)cc2F)c1=O [Example 2.3] | – | – | – | – | very good herbicidal activity (a very good herbicidal activity is given at values of at least 85) | very good herbicidal activity (a very good herbicidal activity is given at values of at least 85) | – | –
COC(=O)C(OC)Oc1ccccc1Oc1cc(-n2c(=O)cc(C(C)(F)F)n(C)c2=O)c(F)cc1Cl (stereo not drawn) [Example 2.1] | – | – | – | – | very good herbicidal activity (a very good herbicidal activity is given at values of at least 85) | very good herbicidal activity (a very good herbicidal activity is given at values of at least 85) | very good herbicidal activity (a very good herbicidal activity is given at values of at least 85) | very good herbicidal activity (a very good herbicidal activity is given at values of at least 85)
COC(=O)C(OC)Oc1ccccc1Oc1cc(-n2c(=O)cc(C(C)(F)F)n(C)c2=O)c(F)cc1Br (stereo not drawn) [Example 2.2] | – | – | – | – | very good herbicidal activity (a very good herbicidal activity is given at values of at least 85) | very good herbicidal activity (a very good herbicidal activity is given at values of at least 85) | very good herbicidal activity (a very good herbicidal activity is given at values of at least 85) | very good herbicidal activity (a very good herbicidal activity is given at values of at least 85)
